Source: publication PMC10163288
Some of the results follow.

B1: il2ra_site2_3nfp_sap_19_mot_25f1968e850989674ab44a96009b2963_0001_000000295_0001_53_65_H_._ems_4hM_3289_af2_0001_0000700019_0000001_0_0001 (protein)
chain: SSSSDERAKRAVREALHALELLLQRGDEEWVELTKEYLEAAIKLHNDEEAEELLEELEKKYSSSS
B2: il2ra_site1_2b5i_normal_mot_HHH_b2_04910_000000118_0001_1_19_H_._HHH_b2_05178_0001_0000300014_0000001_0_af2pred_0001_af2pred (protein)
chain: SSSSSEKEEAFELFRQANELDENGDEEEAKKVLEEALELAEEANNRSLVRLIRAALRLLGSSSSS
B3: il2ra_site2_2erj_sap_24_mot_HHH_eva_0077_000000062_0001_1_20_H_._HHH_b1_07478_0001_0000700015_0000001_0_0001_af2pred_0001_af2pred (protein)
chain: SSSSDELERVVEELVEELGLDEEAKKALEASVELLEEAGIDEELAEEILEFYARSLAKQLSSSSS
B4: il2ra_site1_1z92_normal_mot_1581cc1c700002558836ca695aafbf97_0001_1_af2_000000099_0001_17_32_H_._HHH_b2_05050_0001_0000200016_0000001_0_af2pred_0001_af2pred_1 (protein)
chain: SSSSDEEVERLVEELVREFNLSEREERSLRIAAEAALRHGADPEIVERDLEHFVKFLKEKGSSSS
B5: il2ra_site1_2b5i_normal_mot_HHH_b1_08546_af2_000000241_0001_22_37_H_._HHH_b1_05082_0001_0000200016_0000001_0_af2pred_dldesign_0_af2pred (protein)
chain: SSSSSARERIEELLEEAEKLEDPKKQKKLLSKAFKIAYLLGDEEAVAEIAKRYEELEEKESSSSS
B6: il2ra_site2_2erj_normal_mot_c2bf78bdce995293a161f7082e24b401_0001_af2_000000082_0001_17_32_H_._HHH_b1_07868_0001_0000100001_0000001_0 (protein)
chain: SSSSSDEEEIRREVEELLEKVEEVPDLEEAYRLANEALRLASRLQDEELLRLILEVVQRHSSSSS
B7: il2ra_site1_2b5i_sap_9_mot_HHH_b1_04260_af2_000000087_0001_42_54_H_._0021224f6c3d8dbc6366f59e14f09300_0001_af2_0001_0000400026_0000001_0_0001 (protein)
chain: SSSSDIEERIDELAMEASRLYYRGNPEEARELLEEALELARENNDPKLEKEIEFMLRRLGSSSSS
B8: il2ra_site1_2b5i_normal_mot_HHH_b1_08543_af2_000000201_0001_1_15_H_._HHH_b1_01940_0002_0000100004_0000001_1_af2pred_dldesign_0_af2pred (protein)
chain: SSSSDEAWEEIDRLFEEAERLKREGKNEEAKKVLEKALAVAQAAGDAKAVAELTRYLELLSSSSS
B9: il2ra_site1_3nfp_normal_mot_67e1e90ad417e81182229281e7547621_0001_000000049_0001_1_15_H_._8f2fda87c81871a3aab3e6ec2ca46b51_0001_0001_0000100002_0000001_0_af2pre … (protein)
chain: TEEEVEELLELLKEKWSDDPILKRVLEIIKKLLRKNPESALLLLLRIAEDAGDPEVERKVRELLK
B10: il2ra_site2_2erj_normal_mot_HHH_b1_03107_000000098_0001_39_52_H_._HHH_b2_06291_af2_0002_0000300011_0000001_1 (protein)
chain: SSSSNEAWELAAEASIRALELFRRGNPEEARRLIEEALEEVEELNNPAALRYLEFARRDLKSSSS
B11: il2ra_site1_3nfp_normal_mot_HHH_b1_06185_af2_000000236_0001_1_19_H_._HHH_b1_03058_af2_0001_0000100016_0000001_0_af2pred_0001_af2pred_1 (protein)
chain: SSSSSEEAEELYERIREELEELAKRGDVQEVLKLANEAIRLLARLGDPELARKLLRFARELSSSS
B12: il2ra_site2_2erj_normal_mot_f45d1148d8c01955f14ecc842cbfa76e_0001_1_af2_000000069_0001_35_50_H_._HHH_b1_00942_af2_0001_0000500016_0000001_0 (protein)
chain: SSSSDERLEELYKLAVRLLRLVSEGDEEEFEKVFEELQRLIEELDSLAAKRILEHLRELLHSSSS
B13: il2ra_site2_3nfp_normal_mot_HHH_b2_05281_000000198_0001_39_56_H_._HHH_b1_05931_0002_0000400033_0000001_0 (protein)
chain: SSSSDVRERVEELLREVEKLEEEGNPEEAEKVLAEAAHLAYERGDSEAFILVAEFAFEVRQSSSS
B14: il2ra_site2_3nfp_sap_26_mot_HHH_b2_00729_000000274_0001_42_55_H_._HHH_b1_02394_0001_0000200018_0000001_0_0001 (protein)
chain: DEEAEEFAELVRQGNEEEVEEFVRELAERAGIPPEHVVFALLAVALFNGLIPPRESRELREKLQK
B15: il2ra_site1_1z92_normal_mot_3d621733409fa4d2bc95fa1761ba6d8e_0001_af2_000000005_0001_1_12_H_._HHH_b2_04933_0001_0000200013_0000001_0_af2pred_0001_af2pred_1 (protein)
chain: SSSSSEEAEEAIRLIEELNRLFHEGDEEEFEKLAEEVREFAERANNRSLEKFLELAEKSLSSSSS
B16: il2ra_site1_1z92_normal_mot_HHH_b1_07156_000000060_0001_21_38_H_._HEEHE_0071_af2_0002_0000600025_0000001_0_af2pred_0001_af2pred_1 (protein)
chain: SEEEVIERDVEKAAELAGVPSFEVHVENGTVHFTVEGDDVRARSAAKLVERLVRDAGHSVEVTTK
B17: il2ra_site2_3nfp_sap_25_mot_HHH_b1_03309_000000252_0001_1_19_H_._HHH_b1_06314_0001_0000100009_0000001_0_0001 (protein)
chain: SSSSDHEEYLEAALELVKLLLEEGDPEAARRVLELLIKAAEDNRDEEVLERAEELEEQINSSSSS
B18: il2ra_site1_3nfp_sap_13_mot_7a4252a17c26caee427851ffd8bc664f_0001_000000055_0001_1_12_H_._HHH_b1_05968_af2_0001_0000100005_0000001_0_0001_af2pred_0001_af2pred (protein)
chain: SSSSSSLKELFREVREAARRGDLEEAERLVREAIEIAEELGNEAVVKFLRSILRTIEQAKSSSSS

What follows are binders tested against il2ra, P01589 (assay: yeast display titration).

Apparent Kd, inactive:
B1 no binding seen
B2 no binding seen
B3 no binding seen
B4 no binding seen
B5 no binding seen
B6 no binding seen
B7 no binding seen
B8 no binding seen
B9 no binding seen
B10 no binding seen
B11 no binding seen
B12 no binding seen
B13 no binding seen
B14 no binding seen
B15 no binding seen
B16 no binding seen
B17 no binding seen
B18 no binding seen

Quoted at random: two entries already listed.
Apparent Kd, inactive:
B13 no binding seen
B11 no binding seen
